Laboratory results: the supplement of paper PMC11732987, “Enantioselective OTUD7B fragment discovery through chemoproteomics screening and high-throughput optimisation” (Communications Chemistry, 2025)
The other results are listed elsewhere or left out. The data scatter; read single values as rough.

Amino acid sequences for entries named in this document (tags omitted). A change or cut given only in a name is not applied to a line headed by its entry. Residues count along the entry.
UniProt Q6IA86, 757-783: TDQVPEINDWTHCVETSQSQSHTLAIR
UniProt P50402, 119-150: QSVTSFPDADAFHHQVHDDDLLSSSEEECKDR
UniProt P42566, 817-836: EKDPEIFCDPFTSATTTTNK
UniProt O95163: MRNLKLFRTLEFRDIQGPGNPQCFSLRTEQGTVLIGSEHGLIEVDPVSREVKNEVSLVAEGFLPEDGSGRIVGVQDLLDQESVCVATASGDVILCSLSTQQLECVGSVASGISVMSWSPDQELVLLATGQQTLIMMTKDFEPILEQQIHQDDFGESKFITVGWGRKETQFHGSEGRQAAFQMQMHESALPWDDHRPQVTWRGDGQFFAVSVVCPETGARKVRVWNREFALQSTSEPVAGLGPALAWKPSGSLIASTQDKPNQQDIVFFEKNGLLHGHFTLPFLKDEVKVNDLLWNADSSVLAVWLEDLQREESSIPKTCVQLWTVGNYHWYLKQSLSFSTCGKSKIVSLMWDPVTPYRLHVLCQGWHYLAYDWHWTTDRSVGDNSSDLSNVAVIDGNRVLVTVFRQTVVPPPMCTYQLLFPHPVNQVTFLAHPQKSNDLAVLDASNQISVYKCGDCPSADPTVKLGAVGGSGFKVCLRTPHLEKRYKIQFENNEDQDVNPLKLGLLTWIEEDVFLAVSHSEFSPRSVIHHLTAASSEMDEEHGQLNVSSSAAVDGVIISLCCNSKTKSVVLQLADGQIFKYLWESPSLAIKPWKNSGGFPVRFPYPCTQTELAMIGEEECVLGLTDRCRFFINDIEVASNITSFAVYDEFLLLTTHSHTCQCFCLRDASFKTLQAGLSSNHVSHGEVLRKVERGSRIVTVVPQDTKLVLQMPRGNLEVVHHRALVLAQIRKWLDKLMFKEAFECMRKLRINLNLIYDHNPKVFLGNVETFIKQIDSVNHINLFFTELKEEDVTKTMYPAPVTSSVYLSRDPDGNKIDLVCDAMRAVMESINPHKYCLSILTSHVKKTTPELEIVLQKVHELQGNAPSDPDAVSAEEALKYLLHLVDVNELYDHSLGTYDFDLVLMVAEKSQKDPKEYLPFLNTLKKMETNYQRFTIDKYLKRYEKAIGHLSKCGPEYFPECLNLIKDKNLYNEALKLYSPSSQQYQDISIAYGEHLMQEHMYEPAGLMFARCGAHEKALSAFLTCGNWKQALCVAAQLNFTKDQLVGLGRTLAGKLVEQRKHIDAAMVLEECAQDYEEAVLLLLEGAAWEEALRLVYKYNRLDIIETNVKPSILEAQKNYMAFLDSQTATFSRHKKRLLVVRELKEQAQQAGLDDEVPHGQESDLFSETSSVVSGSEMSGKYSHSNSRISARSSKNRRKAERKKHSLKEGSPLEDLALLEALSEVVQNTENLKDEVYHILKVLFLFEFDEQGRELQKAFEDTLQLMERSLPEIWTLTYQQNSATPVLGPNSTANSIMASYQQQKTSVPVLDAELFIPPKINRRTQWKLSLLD
UniProt Q96DZ1, 79-101: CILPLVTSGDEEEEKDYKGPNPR
UniProt O94988, 430-451: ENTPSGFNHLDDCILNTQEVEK
UniProt P25116: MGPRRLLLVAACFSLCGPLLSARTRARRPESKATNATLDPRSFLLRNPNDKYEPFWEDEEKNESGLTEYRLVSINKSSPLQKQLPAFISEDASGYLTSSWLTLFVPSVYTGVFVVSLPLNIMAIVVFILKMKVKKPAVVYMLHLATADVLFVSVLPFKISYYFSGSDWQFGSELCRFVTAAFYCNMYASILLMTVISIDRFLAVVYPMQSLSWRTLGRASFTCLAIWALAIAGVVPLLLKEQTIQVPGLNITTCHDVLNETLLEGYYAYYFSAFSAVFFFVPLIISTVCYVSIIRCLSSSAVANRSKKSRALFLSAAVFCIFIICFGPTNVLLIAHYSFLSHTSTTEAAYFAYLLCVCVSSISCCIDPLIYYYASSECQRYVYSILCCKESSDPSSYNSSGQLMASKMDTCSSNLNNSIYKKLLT
UniProt Q8IV48: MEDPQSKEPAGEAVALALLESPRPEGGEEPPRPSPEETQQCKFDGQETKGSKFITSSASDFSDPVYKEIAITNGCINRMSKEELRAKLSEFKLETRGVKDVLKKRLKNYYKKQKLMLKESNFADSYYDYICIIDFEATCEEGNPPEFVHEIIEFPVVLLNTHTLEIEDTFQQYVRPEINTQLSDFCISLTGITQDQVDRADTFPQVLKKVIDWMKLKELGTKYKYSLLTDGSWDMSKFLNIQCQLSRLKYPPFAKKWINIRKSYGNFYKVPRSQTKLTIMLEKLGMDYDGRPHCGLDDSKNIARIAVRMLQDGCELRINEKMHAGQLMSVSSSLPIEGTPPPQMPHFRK
UniProt A1L3X0: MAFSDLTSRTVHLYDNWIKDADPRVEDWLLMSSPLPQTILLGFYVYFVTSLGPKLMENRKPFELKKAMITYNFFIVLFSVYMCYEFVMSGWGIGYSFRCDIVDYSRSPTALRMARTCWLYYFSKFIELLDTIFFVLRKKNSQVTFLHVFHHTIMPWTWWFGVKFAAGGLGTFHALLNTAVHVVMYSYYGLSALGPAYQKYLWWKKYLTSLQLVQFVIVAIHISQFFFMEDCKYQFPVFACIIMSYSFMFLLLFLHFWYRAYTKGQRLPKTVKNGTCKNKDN
UniProt Q96RT1: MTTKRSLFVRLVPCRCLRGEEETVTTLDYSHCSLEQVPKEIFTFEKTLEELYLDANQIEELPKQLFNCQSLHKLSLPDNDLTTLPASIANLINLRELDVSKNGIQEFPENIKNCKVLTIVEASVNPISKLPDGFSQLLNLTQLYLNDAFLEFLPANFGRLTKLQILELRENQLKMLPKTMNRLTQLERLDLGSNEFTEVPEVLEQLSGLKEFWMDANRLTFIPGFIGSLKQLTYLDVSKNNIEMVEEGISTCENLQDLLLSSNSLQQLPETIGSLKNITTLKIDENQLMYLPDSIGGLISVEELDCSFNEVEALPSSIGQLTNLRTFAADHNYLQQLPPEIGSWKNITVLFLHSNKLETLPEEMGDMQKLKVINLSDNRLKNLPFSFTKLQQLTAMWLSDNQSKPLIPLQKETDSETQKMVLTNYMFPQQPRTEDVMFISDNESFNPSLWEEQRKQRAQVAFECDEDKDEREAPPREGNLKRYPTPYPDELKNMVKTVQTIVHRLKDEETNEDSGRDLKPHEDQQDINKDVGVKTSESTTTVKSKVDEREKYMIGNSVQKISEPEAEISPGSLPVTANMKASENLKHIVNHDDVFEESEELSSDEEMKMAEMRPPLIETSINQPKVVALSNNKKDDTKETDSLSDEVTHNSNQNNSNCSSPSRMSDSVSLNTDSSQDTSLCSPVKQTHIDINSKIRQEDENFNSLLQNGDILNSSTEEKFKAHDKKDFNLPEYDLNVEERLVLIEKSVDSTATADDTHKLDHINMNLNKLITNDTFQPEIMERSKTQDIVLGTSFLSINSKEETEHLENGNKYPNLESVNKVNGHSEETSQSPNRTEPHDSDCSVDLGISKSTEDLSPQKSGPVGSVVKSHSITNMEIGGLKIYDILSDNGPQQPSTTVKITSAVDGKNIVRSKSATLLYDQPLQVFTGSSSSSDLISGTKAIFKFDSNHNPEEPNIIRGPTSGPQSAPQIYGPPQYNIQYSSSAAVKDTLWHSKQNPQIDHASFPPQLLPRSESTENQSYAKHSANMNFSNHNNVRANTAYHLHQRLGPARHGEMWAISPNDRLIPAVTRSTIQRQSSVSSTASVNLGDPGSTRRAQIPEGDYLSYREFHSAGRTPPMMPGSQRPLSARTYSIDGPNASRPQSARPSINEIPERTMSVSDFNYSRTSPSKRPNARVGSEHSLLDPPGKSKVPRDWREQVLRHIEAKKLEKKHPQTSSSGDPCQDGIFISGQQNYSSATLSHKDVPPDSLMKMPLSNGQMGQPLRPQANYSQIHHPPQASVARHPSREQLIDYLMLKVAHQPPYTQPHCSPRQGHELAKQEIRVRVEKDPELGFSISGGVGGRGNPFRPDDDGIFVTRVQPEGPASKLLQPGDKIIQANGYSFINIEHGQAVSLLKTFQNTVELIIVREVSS
UniProt Q52LJ0: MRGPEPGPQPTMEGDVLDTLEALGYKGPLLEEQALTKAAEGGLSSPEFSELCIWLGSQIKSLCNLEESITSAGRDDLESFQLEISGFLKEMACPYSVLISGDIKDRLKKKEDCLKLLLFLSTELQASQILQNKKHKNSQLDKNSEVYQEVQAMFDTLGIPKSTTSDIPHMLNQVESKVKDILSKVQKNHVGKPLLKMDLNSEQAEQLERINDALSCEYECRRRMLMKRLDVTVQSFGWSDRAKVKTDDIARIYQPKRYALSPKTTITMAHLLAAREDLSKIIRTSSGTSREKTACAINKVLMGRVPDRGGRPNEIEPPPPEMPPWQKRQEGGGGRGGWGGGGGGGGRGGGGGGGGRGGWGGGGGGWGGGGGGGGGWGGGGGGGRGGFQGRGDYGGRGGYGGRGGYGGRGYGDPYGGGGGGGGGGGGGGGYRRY
UniProt Q9NVI1: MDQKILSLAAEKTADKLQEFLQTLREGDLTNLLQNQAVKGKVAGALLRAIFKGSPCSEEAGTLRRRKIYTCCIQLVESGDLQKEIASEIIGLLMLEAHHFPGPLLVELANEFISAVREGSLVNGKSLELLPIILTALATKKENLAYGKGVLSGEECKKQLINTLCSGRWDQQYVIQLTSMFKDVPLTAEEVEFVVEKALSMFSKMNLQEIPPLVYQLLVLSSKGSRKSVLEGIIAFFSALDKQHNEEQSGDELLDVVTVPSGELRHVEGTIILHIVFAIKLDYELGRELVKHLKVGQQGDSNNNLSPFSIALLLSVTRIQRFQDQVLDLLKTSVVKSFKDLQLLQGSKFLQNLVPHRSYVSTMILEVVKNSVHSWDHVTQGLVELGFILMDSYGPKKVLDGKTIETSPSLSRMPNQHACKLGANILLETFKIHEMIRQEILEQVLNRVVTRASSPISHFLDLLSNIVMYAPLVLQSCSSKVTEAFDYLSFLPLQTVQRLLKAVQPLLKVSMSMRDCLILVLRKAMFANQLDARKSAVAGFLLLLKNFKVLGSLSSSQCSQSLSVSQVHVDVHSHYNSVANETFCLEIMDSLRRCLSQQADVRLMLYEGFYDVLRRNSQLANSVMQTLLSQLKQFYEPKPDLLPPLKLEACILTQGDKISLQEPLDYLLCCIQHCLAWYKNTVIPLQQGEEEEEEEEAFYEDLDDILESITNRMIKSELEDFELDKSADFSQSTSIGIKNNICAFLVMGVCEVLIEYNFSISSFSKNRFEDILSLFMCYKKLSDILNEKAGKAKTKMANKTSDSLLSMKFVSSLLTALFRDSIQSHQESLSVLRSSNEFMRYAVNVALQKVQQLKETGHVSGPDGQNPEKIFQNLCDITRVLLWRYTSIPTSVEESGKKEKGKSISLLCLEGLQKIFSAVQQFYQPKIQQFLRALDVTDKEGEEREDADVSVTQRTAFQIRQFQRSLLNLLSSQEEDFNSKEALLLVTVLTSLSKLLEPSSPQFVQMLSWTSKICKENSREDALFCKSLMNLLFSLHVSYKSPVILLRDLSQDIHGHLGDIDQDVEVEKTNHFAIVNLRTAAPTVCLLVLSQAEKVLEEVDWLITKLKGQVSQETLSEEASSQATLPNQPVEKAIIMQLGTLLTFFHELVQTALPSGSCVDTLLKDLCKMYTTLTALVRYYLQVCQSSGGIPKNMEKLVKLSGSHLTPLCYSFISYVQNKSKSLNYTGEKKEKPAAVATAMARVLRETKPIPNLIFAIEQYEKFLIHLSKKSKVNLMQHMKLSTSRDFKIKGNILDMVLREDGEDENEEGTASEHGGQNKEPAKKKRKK
UniProt Q96EK7: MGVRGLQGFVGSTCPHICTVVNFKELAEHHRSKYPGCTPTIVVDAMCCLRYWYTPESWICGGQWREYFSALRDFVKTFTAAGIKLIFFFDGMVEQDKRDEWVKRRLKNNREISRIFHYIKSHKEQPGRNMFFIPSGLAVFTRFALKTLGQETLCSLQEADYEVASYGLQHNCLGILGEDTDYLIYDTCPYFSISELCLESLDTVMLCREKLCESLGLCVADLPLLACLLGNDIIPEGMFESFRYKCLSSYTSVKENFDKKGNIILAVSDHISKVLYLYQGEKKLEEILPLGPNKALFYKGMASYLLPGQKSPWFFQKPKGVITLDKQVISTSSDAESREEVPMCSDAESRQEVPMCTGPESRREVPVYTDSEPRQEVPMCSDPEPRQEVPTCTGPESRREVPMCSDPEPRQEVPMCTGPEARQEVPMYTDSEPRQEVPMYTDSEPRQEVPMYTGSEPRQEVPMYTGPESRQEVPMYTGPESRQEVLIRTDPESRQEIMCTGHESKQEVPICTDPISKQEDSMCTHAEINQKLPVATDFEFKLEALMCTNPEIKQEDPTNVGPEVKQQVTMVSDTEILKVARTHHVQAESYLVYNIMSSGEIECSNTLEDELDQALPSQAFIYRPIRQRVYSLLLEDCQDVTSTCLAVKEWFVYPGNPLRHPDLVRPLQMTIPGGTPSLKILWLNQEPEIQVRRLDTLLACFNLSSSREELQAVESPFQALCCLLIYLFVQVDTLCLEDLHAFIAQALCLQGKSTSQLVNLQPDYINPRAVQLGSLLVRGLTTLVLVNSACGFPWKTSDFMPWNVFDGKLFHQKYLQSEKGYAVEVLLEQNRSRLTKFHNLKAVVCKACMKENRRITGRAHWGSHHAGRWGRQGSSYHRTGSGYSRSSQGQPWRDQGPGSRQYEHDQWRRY

What was measured:
[1] = compound: ClCC(=O)N[C@@H]1CCCc2ccccc12; assay: log2 mean competition ratio of IA-DTB cysteine labelling (DMSO/compound) (log2 ratio); higher = stronger cysteine engagement by compound; details: treatment time: 4 h, cell line lysate: HEK293T
Experimental: (§1)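 IA-DTB competitive cysteine chemoproteomics in HEK293T RIPA lysate. Lysates were treated with compound 29 or 30 at 50 or 200 µM for 4 h, then IA-DTB (500 µM, 1 h), trypsin-digested, NeutrAvidin-enriched and analysed by diaPASEF. Competition ratio = intensity DMSO / intensity compound (n=4 treated, n=64 DMSO); binding: mean log2 CR ≥ 1 and p ≤ 0.05 plus QC filters. Target is the cysteine site.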

[2] = compound: ClCC(=O)N[C@H]1CCCc2ccccc12; assay: as above; details: treatment time: 4 h, cell line lysate: HEK293T
Experimental: as §1

| Target | log2 mean competition ratio ([1]; 50 µM) | log2 mean competition ratio ([1]; 200 µM) | log2 mean competition ratio ([2]; 50 µM) | log2 mean competition ratio ([2]; 200 µM) |
| --- | --- | --- | --- | --- |
| EXOC7 C550 (UniProt Q9UPT5) | 0.211 | 0.0722 | 0.411 | 0.0774 |
| EXD2 C168 (UniProt Q9NVH0) | -0.141 | 0.144 | -0.232 | 0.00778 |
| FAM189B C163 | 0.214 | 0.261 |  |  |
| ELP2 C769 (UniProt Q6IA86) | 0.426 | -0.347 | 0.412 | -0.29 |
| EMD C147 (UniProt P50402) | -0.508 | 0.0233 |  |  |
| ERCC5 C1021 (UniProt P28715) | -0.0157 | -0.0982 |  | 0.0942 |
| EPS15 C824 (UniProt P42566) | 0.206 | -0.0122 |  |  |
| ELP2 C586 (UniProt Q6IA86) | 0.0235 | -0.236 |  |  |
| ELP1 C213 (UniProt O95163) | -0.12 | -0.23 |  |  |
| EXOC5 C675 (UniProt O00471) | -0.167 | 0.179 | -0.316 | 0.0586 |
| ERO1A C131 (UniProt Q96HE7) | -0.418 | 0.341 |  |  |
| ERN1 C538 (UniProt O75460) | 0.299 | 0.0787 |  |  |
| ESPL1 C1369 (UniProt Q14674) | -0.374 | 0.15 |  |  |
| ERLEC1 C79 (UniProt Q96DZ1) | -0.148 | 0.131 | -0.388 | 0.315 |
| ERAP1 C806 (UniProt Q9NZ08) | 0.27 | -0.1 |  | 0.00923 |
| FAM13A C442 (UniProt O94988) | -0.125 | 0.45 |  | -0.257 |
| ELP2 C204 (UniProt Q6IA86) | 0.175 | 0.048 |  |  |
| ETF1 C335 (UniProt P62495) | 0.0855 | -0.442 |  |  |
| ELOVL5 C96 (UniProt Q9NYP7) | 0.414 | -0.0518 |  |  |
| EMILIN3 C330 | 0.0825 | -0.0995 |  |  |
| EXOC8 C521 (UniProt Q8IYI6) | -0.118 | -0.154 |  |  |
| F2R C296 (UniProt P25116) | -0.0516 | -0.121 |  |  |
| ERCC6L C587 (UniProt Q2NKX8) | 0.0425 | 0.0405 |  |  |
| EML4 C311 (UniProt Q9HC35) | -0.0103 | -0.345 |  |  |
| ERCC6L C982 (UniProt Q2NKX8) | 0.0398 | -0.192 |  |  |
| ERI1 C314 (UniProt Q8IV48) | 0.253 | -0.273 |  |  |

| Target | log2 mean competition ratio ([1]; 50 µM) | log2 mean competition ratio ([1]; 200 µM) | log2 mean competition ratio ([2]; 50 µM) | log2 mean competition ratio ([2]; 200 µM) |
| --- | --- | --- | --- | --- |
| EML3 C615 (UniProt Q32P44) | -0.254 | 0.0745 |  | -0.0981 |
| FAM171A2 C742 (UniProt A8MVW0) | -0.31 | 0.15 |  |  |
| FAM118B C319 (UniProt Q9BPY3) | -0.282 | -0.175 |  |  |
| ERCC2 C155 (UniProt P18074) | -0.0352 | 0.136 |  |  |
| FAM193A C292, A0A1B0GVL4 | -0.711 | -0.266 | -0.27 | -0.106 |
| ESRRG C104 | -0.235 | 0.124 |  |  |
| FAN1 C700 | -0.0757 | 0.0104 | 0.121 | -0.0453 |
| ELOVL7 C99 (UniProt A1L3X0) | -0.126 | -0.0179 |  |  |
| EME1 C133 (UniProt Q96AY2) | -0.155 | 0.136 | -0.273 | -0.0425 |
| ELOC C11 (UniProt Q15369) | 0.0375 | -0.242 |  |  |
| ERBIN C464 (UniProt Q96RT1) | -0.139 | 0.0123 | -0.147 | 0.00334 |
| ELP6 C218 (UniProt Q0PNE2) | 0.0376 | -0.0283 | 0.195 | 0.01 |
| FAM76A C108 (UniProt Q8TAV0) | -0.239 | 0.248 | -0.0223 | 0.222 |
| FAM98B C295 (UniProt Q52LJ0) | 0.0897 | -0.0997 | 0.178 | -0.0959 |
| FANCI C1025 (UniProt Q9NVI1) | -0.0701 | 0.0276 | 0.0876 | 0.0265 |
| FAHD2A C215 (UniProt Q96GK7) | 0.119 | -0.321 | -0.103 | -0.0417 |
| ERCC4 C143 (UniProt Q92889) | -0.0243 | -0.0536 | -0.281 | -0.0901 |
| ELP1 C341 (UniProt O95163) | -0.0619 | -0.141 | 0.46 | -0.111 |
| FAM120A C919 | 0.115 | 0.237 | 0.0496 | 0.0845 |
| EMC4 C69 (UniProt Q5J8M3) | 0.399 | 0.0269 | 0.179 | -0.0599 |
| FAM120B C380(C404) (UniProt Q96EK7) | -0.119 | 0.0784 | -0.112 | 0.182 |
| EPB41L2 C232 (UniProt O43491) | -0.236 | -0.199 | -0.341 | -0.0363 |
| EPS15L1 C470 | -0.0305 | -0.1 | -0.14 | 0.108 |
| ETAA1 C68 (UniProt Q9NY74) | -0.155 | 0.00325 | 0.0465 | 0.126 |
| FAM114A2 C438 (UniProt Q9NRY5) | -0.00482 | -0.307 | -0.242 | -0.303 |

Looked up above.
Value of ETAA1 C68 (UniProt Q9NY74) under log2 mean competition ratio ([2]; 200 µM): 0.126
Value of ELP1 C341 (UniProt O95163) under log2 mean competition ratio ([1]; 200 µM): -0.141
Value of EME1 C133 (UniProt Q96AY2) under log2 mean competition ratio ([1]; 50 µM): -0.155
Value of FAHD2A C215 (UniProt Q96GK7) under log2 mean competition ratio ([1]; 50 µM): 0.119
